The text below walks through data of PubChem BioAssay AID2685 (National Center for Advancing Translational Sciences (NCATS), 2010).

A short description of this assay: qHTS Assay for Lipid Storage Modulators in Drosophila S3 Cells.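 As to cell number change: cells counted by Cell Tracker Red CMTPX staining in the red channel.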 Particulars: BODIPY lipid droplet fluorescence, 18-24 h; for cell number change: measured here: cell count max response, cells fed with added oleic acid. A digest of the protocol:
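Laser-scanning cytometry quantifies lipid droplet accumulation (500–530 nm total intensity; droplet/cell object ratio) in oleic acid-fed (400 uM added) Drosophila S3 cells treated with a concentration series. 20 uM Triacsin C defined 100% inhibition.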

The mark [1] stands for this setting: measured here: lipid fluorescence (Fed channel) AC50, cells fed with added oleic acid.
The mark [2] stands for this setting: measured here: cell number channel AC50, cells fed with added oleic acid.

Some of the results follow. Shown are side measurements of this screen, not its main read-out; they come without a call. Most of these compounds were active or inconclusive in the main read-out, so they are no random draw. The note in brackets gives the kind of curve behind each potency; many fits are weak.

In general, AC50 refers to the concentration giving half of the maximal activity seen. A low value points to activity at low concentration. For the compound `Cc1ccc(N2CC(C(=O)OCc3ccccc3)CC2=O)cc1` (configuration not stated), the cell number change is -25.6%. The concentration at half-maximal activity (AC50) under setting [1] is 2.31 µM [falling, full curve, poor fit]. Regarding `CC(=O)N(C(C)=O)c1nc(-c2ccccc2)cn1/N=C/c1ccccc1`, the AC50 under setting [1] is 1.46 µM [falling, partial curve].

Consider `COc1ccc(NC(=O)CN2CCN(CC(=O)Nc3ccc(OC)c(OC)c3)CC2)cc1`, for which the cell number change was determined as 17%. Under setting [1], the half-maximal activity concentration (AC50) is 14.6 µM [rising, partial curve].

As for `CCC(NC(=O)NNC(=O)c1ccncc1)(C(F)(F)F)C(F)(F)F`, the cell number change was determined as 0.427%. In addition, the AC50 under setting [1] was 1.46 µM [falling, partial curve, poor fit]. On to `COCCN(C(=O)COC(=O)CCSc1ccc(F)cc1)c1c(N)n(Cc2ccccc2)c(=O)[nH]c1=O`, for which the cell number change is 1.39%. Under setting [1], the AC50 was 3.26 µM [rising, single point]. As for `CCOc1ccc(-c2nnn(CC(=O)Nc3cc(OC)ccc3OC)n2)cc1OCC`, the cell number change was -8.94%. Besides, the half-maximal activity concentration (AC50) under setting [2] was 4.61 µM [falling, single point].

For `N#CC(C(=O)OCc1ccccc1)c1nc2ccccc2nc1N1CCOCC1` (configuration not stated), the cell number change was -0.856%. Besides, under setting [1], the concentration at half-maximal activity (AC50) is 0.517 µM [rising, full curve]. Take `Cc1c(C(=O)NCc2ccccn2)sc2nc(-c3ccc(F)cc3)cn12`: the cell number change was 126%. Moreover, under setting [2], the half-maximal activity concentration (AC50) is 0.58 µM [rising, full curve]. Under setting [1], the concentration at half-maximal activity (AC50) was 2.59 µM [rising, full curve, poor fit]. Take `CCOC(=O)N/N=C\c1ccc(OC(=O)c2ccc3c(c2)OCO3)cc1`: the cell number change was determined as 7.36%. In addition, the concentration at half-maximal activity (AC50) under setting [1] is 0.651 µM [falling, single point]. Take `CCCCNC(=O)c1ccc(CS(=O)(=O)c2cccc(C(F)(F)F)c2)o1`: the cell number change was 7.54%. For the compound `O=C(Nc1ccc2c(c1)OCO2)C1CC(c2c(F)cccc2Cl)=NO1` (configuration not stated), the AC50 is, setting by setting: under setting [2], 1.46 µM [rising, partial curve]; under setting [1], 1.16 µM [rising, full curve].

In the case of `CC1CCCCN1C(=O)CSc1nc(N)cc(=O)[nH]1` (configuration not stated), the cell number change was -12.8%. The half-maximal activity concentration (AC50) under setting [1] was 6.51 µM [falling, single point]. In the case of `CC(=O)N1CCN(C(=O)/C(C#N)=C/c2ccc3c(c2)OCO3)CC1`, the cell number change is -9.01%. For the same compound, the half-maximal activity concentration (AC50) under setting [1] was 0.58 µM [falling, single point]. Regarding `Cn1nc(C(=O)NCc2cccc(Cl)c2)c2c1-c1ccccc1S(=O)(=O)C2`, the cell number change turned out to be 42.4%. Moreover, the AC50 under setting [2] was 29.1 µM [rising, single point]. For the same compound, under setting [1], the AC50 was 20.6 µM [rising, single point]. On to `C=CCC1c2cccc(C(=O)O)c2C(=O)N1c1cccc(C)c1` (configuration not stated), for which the cell number change amounted to 0.717%. Still for that read-out and setting: the value for `CCCOc1ccc(NC(=O)C2CC(=O)N(C(C)C)C2)cc1` (configuration not stated) was -8.87%.

On to `CCC(OC(=O)CN1C(=O)c2ccccc2C1=O)C(=O)NC1CCCC1` (configuration not stated), for which the cell number change was -8.55%. As to `CC(C)C(=O)Nc1c(-c2cccs2)c(=O)c2ccccc2n1C`, the cell number change worked out at 36%. Also, the concentration at half-maximal activity (AC50) under setting [2] was 14.6 µM [rising, single point]. Consider `COc1ccc(N(CC(=O)NCCC2=CCCCC2)S(=O)(=O)c2c(C)[nH]c(=O)[nH]c2=O)cc1`, for which the cell number change is -9.03%. Still for that read-out and setting: the same measure for `Cc1ccccc1N(C)S(=O)(=O)c1nnc(NC(=O)c2ccccc2F)s1`: 0.33%.

On to `CC(=O)Nc1nc(COc2ccc3ccccc3c2)cs1`, for which the cell number change was -34.5%. Under setting [2], the concentration at half-maximal activity (AC50) was 23.1 µM [falling, single point]. In addition, under setting [1], the AC50 was 29.1 µM [falling, single point]. On to `CC[C@H](C)[C@H](NC(=O)OCc1ccccc1)C(=O)OCC(=O)N(C)CC(=O)Nc1ccccc1Cl`, for which the cell number change was -9.94%. In the case of `CCCN(CCC)C(=O)Cn1c(=O)n(CCC(=O)NCCc2ccccc2)c(=O)c2ccccc21`, the cell number change amounted to 139%. Also, the AC50 under setting [2] was 29.1 µM [rising, single point]. For `Cc1ccccc1Nc1nc(N)nc(CN2CCN(c3ccccn3)CC2)n1`, the cell number change worked out at 21.8%. Moreover, the concentration at half-maximal activity (AC50) under setting [1] was 1.84 µM [rising, full curve].

Consider `CCc1ccc(NC2=NCC(c3ccccc3)S2)cc1` (configuration not stated), for which the cell number change was -40.3%. Besides, the AC50 under setting [1] is 29.1 µM [falling, single point]. In the case of `COc1cccc(C(=O)NC2CCCc3ccccc32)c1` (configuration not stated), the cell number change is -9.38%. The half-maximal activity concentration (AC50) under setting [1] is 0.731 µM [rising, single point].

Turning to `NC(=O)C1CCN(c2ncnc3c2c(-c2ccccc2)cn3-c2ccccc2)CC1`, the cell number change was -4.24%. Further, the concentration at half-maximal activity (AC50) under setting [1] is 0.411 µM [falling, partial curve, poor fit]. For the compound `CCOC(=O)c1[nH]c(C)c(/C(O)=C2\C(=O)C(=O)N(CCCN(C)C)C2c2cccnc2)c1C` (configuration not stated), the cell number change was 6.72%. Also, the AC50 under setting [1] is 0.116 µM [falling, full curve, poor fit]. Regarding `Cc1nc(NC(=O)C2CC2)sc1C(=O)Nc1cccc(Cl)c1`, the cell number change came out at 7.72%. For the same compound, the AC50 under setting [1] is 18.4 µM [falling, single point]. With `Cc1ccn2c(=O)nc(SCC(=O)NC3CCCCC3)nc2c1`, under setting [2], the AC50 was 0.58 µM [rising, partial curve, poor fit]. Consider `CCC1CCCCN1Cc1ccc(OC)c(OC)c1` (configuration not stated), for which the cell number change is -1.61%. For the same compound, under setting [1], the AC50 was 29.1 µM [falling, single point].

`CN(C(=O)c1ccc2c(Cl)c3c(nc2c1)CCC3)c1ccccc1`: the cell number change came to 24.6%. Besides, the half-maximal activity concentration (AC50) under setting [2] was 0.00461 µM [rising, full curve, poor fit]. In addition, the AC50 under setting [1] is 0.00461 µM [rising, full curve, poor fit]. Regarding `N#Cc1c(NC(=O)c2ccccc2Cl)n(Cc2ccccc2)c2nc3ccccc3nc12`, the cell number change was -22.6%. Also, under setting [1], the AC50 was 29.1 µM [rising, single point]. As to `COc1ccc(OC(=O)c2cccc([N+](=O)[O-])c2)c(C(=O)/C=C/c2cccs2)c1`, the cell number change was -87.2%. The AC50 under setting [2] was 29.1 µM [falling, single point]. Besides, under setting [1], the half-maximal activity concentration (AC50) is 29.1 µM [falling, single point]. Consider `Nc1nonc1C(=O)NCCNC(=O)c1ccc(Cl)c(Cl)c1`, for which the cell number change was found to be 10.8%. As for `CC(=O)Nc1cccc(NC(=O)CSc2n[nH]c(-c3ccccc3)n2)c1`, the cell number change was -6.48%. Under setting [1], the concentration at half-maximal activity (AC50) was 29.1 µM [rising, single point]. Turning to `CCSc1ccccc1C(=O)Nc1ccc([N+](=O)[O-])cc1OC`, the cell number change was -20.6%. The AC50 under setting [1] is 0.00517 µM [falling, full curve, poor fit]. For the compound `CC(C)(C)OC(=O)N1CCN(c2ccc(NC(=O)Cn3nnc(-c4ccccc4)n3)cc2)CC1`, the cell number change is -53.6%. Besides, under setting [2], the concentration at half-maximal activity (AC50) is 29.1 µM [falling, single point]. Besides, the concentration at half-maximal activity (AC50) under setting [1] was 23.1 µM [falling, partial curve].
